Data as given in publication PMC6905112, “CtcS, a MarR family regulator, regulates chlortetracycline biosynthesis” (BMC Microbiology, 2019).
Construct, isoform or probe ends are uncertain for at least one entry. A weaker result is weaker than the reference pair of the same experiment. Where a protein sequence is shown, tags need not be part of it.

Target: T1, CtcS (Streptomyces aureofaciens F3) (UniProt S4S3A4)
T1 sequence (looked up, limits assumed): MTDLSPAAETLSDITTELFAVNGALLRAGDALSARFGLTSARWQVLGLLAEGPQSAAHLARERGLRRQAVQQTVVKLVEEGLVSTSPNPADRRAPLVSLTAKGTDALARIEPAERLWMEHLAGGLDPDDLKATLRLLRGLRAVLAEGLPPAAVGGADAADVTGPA
Test: EMSA
Settings: EMSA: 50 mM Tris-HCl pH 8.0, 100 mM KCl, 2.5 mM MgCl2, 0.2 mM DTT, 10% glycerol, 0.04 pmol FAM probe, 100 ng/uL salmon sperm DNA, 25 C 30 min, recombinant protein, protein details: His6 (pET28a NdeI/EcoRI), label: FAM, probe letters rebuilt from the primers and the genome, part of a longer molecule

## TGAGCCCGAAGCGGGCGGACAGCGCGTCGCCCGCGCGCAGCAGGGCTCCGTTGACGGCGAACAGTTCGGTGGTGATGTCACTCAAGGTCTCGGCCGCGGGGGAGAGATCGGTCATGGGGGCAGCCTAATCGCAGGCTCTCCACGGCCAGCCTAGCCTCGTCCGGGCCGGGATTTCGGCAAGAACTTGTCATTCCGCCACGGTAGCCACTACGCTCAGTTCGACAAGACCTTGTCGAATTCGGTGGGAGAAATGGGAATGGCGAACGCCACCTCGCAGACCGGCGAGGCCGTCGCGGACGAGGCCGGCGGCCCCGCCGGCTTCACTCACCGCCAGATCATCACCGCGCTGTCCGGGCTCCTGTTGGCCGTG (double strand) [ctcS-ctcR intergenic region probe]
10-40 pmol CtcS in 20 uL, salmon sperm DNA 100 ng/uL
  binding result: binds
Chlortetracycline 1.5 uM, no effect on complex, 20 uL
  binding result: binds
Chlortetracycline 0.5 mM, same shift change as 2.5 uM tetracycline, 20 uL
  binding result: binds more weakly
tetracycline, complex dissociates at 1.5 uM, concentration dependent, 20 uL
  binding result: binds more weakly
